{"source": "the supplement of paper PMC11348887", "settings_in_all_cases": "5 µM; treatment: days 7-14 after plating, readout day 21", "key": {"[1]": {"test_system": "hPSC-derived cortical neurons (WA09)", "assay": "nucleus area z-score vs screen plate; higher = larger nuclei (more mature)"}, "[2]": {"test_system": "hPSC-derived cortical neurons (WA09)", "assay": "total neurite length per nucleus (MAP2) z-score; higher = more neurite growth"}, "[3]": {"test_system": "hPSC-derived cortical neurons (WA09)", "assay": "nucleus roundness z-score vs screen plate; higher = rounder nuclei (more mature)"}, "[4]": {"test_system": "hPSC-derived cortical neurons (WA09)", "assay": "KCl-induced FOS+/EGR-1+ double-positive nuclei fraction z-score (KCl minus unstimulated); higher = stronger activity-induced IEG response"}}, "note": "Counter-ions that a name gives are not always drawn. The list shows a part of the results. Small differences around the control level are noise.", "data": [{"smiles": "C[C@@]12N[C@@H](Cc3ccccc31)c1ccccc12", "note": "[(-)-MK 801 Maleate]", "values": [{"measurement": "nucleus area z-score", "setting": "[1]", "value": 0.614}, {"measurement": "total neurite length per nucleus (z-score)", "setting": "[2]", "value": 0.338}, {"measurement": "nucleus roundness z-score", "setting": "[3]", "value": -0.335}, {"measurement": "KCl-induced FOS+/EGR-1+ double-positive nuclei fraction z-score", "setting": "[4]", "value": -0.269}]}, {"smiles": "O=C(O)CCCc1ccc(N(CCCl)CCCl)cc1", "note": "[Chloroambucil]", "values": [{"measurement": "nucleus area z-score", "setting": "[1]", "value": 0.151}, {"measurement": "total neurite length per nucleus (z-score)", "setting": "[2]", "value": 1.14}, {"measurement": "nucleus roundness z-score", "setting": "[3]", "value": 1.24}, {"measurement": "KCl-induced FOS+/EGR-1+ double-positive nuclei fraction z-score", "setting": "[4]", "value": 1.25}]}, {"smiles": "Cc1cc2c(C(C)C)c(O)c(O)c(C=O)c2c(O)c1-c1c(C)cc2c(C(C)C)c(O)c(O)c(C=O)c2c1O", "note": "[Gossypol]", "values": [{"measurement": "nucleus area z-score", "setting": "[1]", "value": 0.246}, {"measurement": "total neurite length per nucleus (z-score)", "setting": "[2]", "value": -0.304}, {"measurement": "nucleus roundness z-score", "setting": "[3]", "value": -1.4}, {"measurement": "KCl-induced FOS+/EGR-1+ double-positive nuclei fraction z-score", "setting": "[4]", "value": 0.191}]}, {"smiles": "Cc1cccc(C)c1NC1=NCCCS1", "note": "[Xylazine HCl]", "values": [{"measurement": "nucleus area z-score", "setting": "[1]", "value": -0.00202}, {"measurement": "total neurite length per nucleus (z-score)", "setting": "[2]", "value": 1.07}, {"measurement": "nucleus roundness z-score", "setting": "[3]", "value": 1.36}, {"measurement": "KCl-induced FOS+/EGR-1+ double-positive nuclei fraction z-score", "setting": "[4]", "value": 1.42}]}, {"smiles": "CCN1CC2(OC(=O)c3ccccc3NC(C)=O)CCC(OC)C34C1C(CC23)C1(O)CC(OC)C2CC4C1(O)C2OC", "note": "(configuration not stated) [Lappaconite HBr]", "values": [{"measurement": "nucleus area z-score", "setting": "[1]", "value": -0.133}, {"measurement": "total neurite length per nucleus (z-score)", "setting": "[2]", "value": -0.411}, {"measurement": "nucleus roundness z-score", "setting": "[3]", "value": -0.399}, {"measurement": "KCl-induced FOS+/EGR-1+ double-positive nuclei fraction z-score", "setting": "[4]", "value": 0.31}]}, {"smiles": "C[C@@H]1CC[C@@]2(OC1)O[C@H]1C[C@H]3[C@@H]4CC=C5C[C@@H](O[C@@H]6O[C@H](CO)[C@@H](O[C@@H]7O[C@@H](C)[C@H](O)[C@@H](O)[C@H]7O)[C@H](O)[C@H]6O[C@@H]6O[C@@H](C)[C@H](O)[C@@H](O)[C@H]6O)CC[C@]5(C)[C@H]4CC[C@]3(C)[C@H]1[C@@H]2C", "note": "[Dioscin]", "values": [{"measurement": "nucleus area z-score", "setting": "[1]", "value": -6.59}, {"measurement": "total neurite length per nucleus (z-score)", "setting": "[2]", "value": -2.25}, {"measurement": "nucleus roundness z-score", "setting": "[3]", "value": 1.24}, {"measurement": "KCl-induced FOS+/EGR-1+ double-positive nuclei fraction z-score", "setting": "[4]", "value": 4.9}]}, {"smiles": "N#C[C@H](O[C@@H]1O[C@H](C(=O)O)[C@@H](O)[C@H](O)[C@H]1O)c1ccccc1", "note": "[Laetrile]", "values": [{"measurement": "nucleus area z-score", "setting": "[1]", "value": -0.282}, {"measurement": "total neurite length per nucleus (z-score)", "setting": "[2]", "value": -0.425}, {"measurement": "nucleus roundness z-score", "setting": "[3]", "value": -1.17}, {"measurement": "KCl-induced FOS+/EGR-1+ double-positive nuclei fraction z-score", "setting": "[4]", "value": -0.938}]}, {"smiles": "C=CCN1CC[C@]23c4c5ccc(O)c4O[C@H]2C(=O)CC[C@@]3(O)[C@H]1C5", "note": "[Naloxone HCl Dihydrate]", "values": [{"measurement": "nucleus area z-score", "setting": "[1]", "value": 0.38}, {"measurement": "total neurite length per nucleus (z-score)", "setting": "[2]", "value": 0.17}, {"measurement": "nucleus roundness z-score", "setting": "[3]", "value": 0.48}, {"measurement": "KCl-induced FOS+/EGR-1+ double-positive nuclei fraction z-score", "setting": "[4]", "value": 0.835}]}, {"smiles": "COC1=C[C@@H]2[C@@H]3Cc4ccc(OC)c(O)c4[C@]2(CCN3C)CC1=O", "note": "[Sinomenine]", "values": [{"measurement": "nucleus area z-score", "setting": "[1]", "value": -0.158}, {"measurement": "total neurite length per nucleus (z-score)", "setting": "[2]", "value": -0.108}, {"measurement": "nucleus roundness z-score", "setting": "[3]", "value": 0.541}, {"measurement": "KCl-induced FOS+/EGR-1+ double-positive nuclei fraction z-score", "setting": "[4]", "value": 0.78}]}, {"smiles": "Cc1ccccc1-n1c(Cn2ncc3c(N)ncnc32)nc2cccc(C)c2c1=O", "values": [{"measurement": "nucleus area z-score", "setting": "[1]", "value": 1.4}, {"measurement": "total neurite length per nucleus (z-score)", "setting": "[2]", "value": 0.902}, {"measurement": "nucleus roundness z-score", "setting": "[3]", "value": -0.761}, {"measurement": "KCl-induced FOS+/EGR-1+ double-positive nuclei fraction z-score", "setting": "[4]", "value": 0.0164}]}, {"smiles": "Cc1sc2c(c1C)C(c1ccc(Cl)cc1)=N[C@@H](CC(=O)OC(C)(C)C)c1nnc(C)n1-2", "values": [{"measurement": "nucleus area z-score", "setting": "[1]", "value": -8.44}, {"measurement": "total neurite length per nucleus (z-score)", "setting": "[2]", "value": -1.72}, {"measurement": "nucleus roundness z-score", "setting": "[3]", "value": -3.95}, {"measurement": "KCl-induced FOS+/EGR-1+ double-positive nuclei fraction z-score", "setting": "[4]", "value": -0.169}]}, {"smiles": "CCC1(c2cccc(O)c2)CCCCN(C)C1", "note": "(configuration not stated) [Meptazinol HCl]", "values": [{"measurement": "nucleus area z-score", "setting": "[1]", "value": -0.673}, {"measurement": "total neurite length per nucleus (z-score)", "setting": "[2]", "value": -0.183}, {"measurement": "nucleus roundness z-score", "setting": "[3]", "value": -0.308}, {"measurement": "KCl-induced FOS+/EGR-1+ double-positive nuclei fraction z-score", "setting": "[4]", "value": 0.265}]}, {"smiles": "C/C(=C\\c1csc(C)n1)[C@@H]1C[C@@H]2O[C@]2(C)CCC[C@H](C)[C@H](O)[C@@H](C)C(=O)C(C)(C)[C@@H](O)CC(=O)O1", "note": "[Epothilone B (EPO906_ Patupilone)]", "values": [{"measurement": "nucleus area z-score", "setting": "[1]", "value": 0.839}, {"measurement": "total neurite length per nucleus (z-score)", "setting": "[2]", "value": -0.298}, {"measurement": "nucleus roundness z-score", "setting": "[3]", "value": -0.792}, {"measurement": "KCl-induced FOS+/EGR-1+ double-positive nuclei fraction z-score", "setting": "[4]", "value": -0.213}]}, {"smiles": "NCCc1ccc(S(=O)(=O)F)cc1", "values": [{"measurement": "nucleus area z-score", "setting": "[1]", "value": 0.206}, {"measurement": "total neurite length per nucleus (z-score)", "setting": "[2]", "value": -0.482}, {"measurement": "nucleus roundness z-score", "setting": "[3]", "value": -0.93}, {"measurement": "KCl-induced FOS+/EGR-1+ double-positive nuclei fraction z-score", "setting": "[4]", "value": -0.000635}]}, {"smiles": "O=[N+]([O-])c1ncc[nH]1", "note": "[Azomycin]", "values": [{"measurement": "nucleus area z-score", "setting": "[1]", "value": 0.142}, {"measurement": "total neurite length per nucleus (z-score)", "setting": "[2]", "value": 0.271}, {"measurement": "nucleus roundness z-score", "setting": "[3]", "value": -0.0753}, {"measurement": "KCl-induced FOS+/EGR-1+ double-positive nuclei fraction z-score", "setting": "[4]", "value": 0.596}]}, {"smiles": "COc1ccc(CN2CCNCC2)c(OC)c1OC", "note": "[Trimetazidine dihydrochloride]", "values": [{"measurement": "nucleus area z-score", "setting": "[1]", "value": 0.669}, {"measurement": "total neurite length per nucleus (z-score)", "setting": "[2]", "value": 0.0325}, {"measurement": "nucleus roundness z-score", "setting": "[3]", "value": 0.0739}, {"measurement": "KCl-induced FOS+/EGR-1+ double-positive nuclei fraction z-score", "setting": "[4]", "value": 2.04}]}, {"smiles": "NCC(=O)O.[C-]#[O+].[C-]#[O+].[C-]#[O+].[Cl][Ru]", "values": [{"measurement": "nucleus area z-score", "setting": "[1]", "value": 1.44}, {"measurement": "total neurite length per nucleus (z-score)", "setting": "[2]", "value": 0.262}, {"measurement": "nucleus roundness z-score", "setting": "[3]", "value": -0.0913}, {"measurement": "KCl-induced FOS+/EGR-1+ double-positive nuclei fraction z-score", "setting": "[4]", "value": 0.0679}]}, {"smiles": "CCc1c(C(=O)C(N)=O)c2c(OCC(=O)O)cccc2n1Cc1ccccc1", "values": [{"measurement": "nucleus area z-score", "setting": "[1]", "value": 0.52}, {"measurement": "total neurite length per nucleus (z-score)", "setting": "[2]", "value": -0.503}, {"measurement": "nucleus roundness z-score", "setting": "[3]", "value": 0.294}, {"measurement": "KCl-induced FOS+/EGR-1+ double-positive nuclei fraction z-score", "setting": "[4]", "value": 0.0079}]}, {"smiles": "C[C@@H]1[C@H](O)[C@@H](C)/C=C/C=C/CC/C=C/C=C/C=C/C=C/[C@H](O[C@H]2O[C@@H](C)[C@H](O)[C@@H](N)[C@H]2O)C[C@@H]2O[C@](O)(C[C@@H](O)[C@H](O)CC[C@@H](O)C[C@@H](O)C[C@@H](O)CC(=O)O[C@H]1C)C[C@H](O)[C@H]2C(=O)O", "note": "[Nystatin (Fungicidin)]", "values": [{"measurement": "nucleus area z-score", "setting": "[1]", "value": 0.0278}, {"measurement": "total neurite length per nucleus (z-score)", "setting": "[2]", "value": -0.194}, {"measurement": "nucleus roundness z-score", "setting": "[3]", "value": 0.163}, {"measurement": "KCl-induced FOS+/EGR-1+ double-positive nuclei fraction z-score", "setting": "[4]", "value": -0.278}]}, {"smiles": "c1ccc2c(c1)Nc1ccccc1S2", "note": "[Phenothiazine]", "values": [{"measurement": "nucleus area z-score", "setting": "[1]", "value": -0.144}, {"measurement": "total neurite length per nucleus (z-score)", "setting": "[2]", "value": 0.29}, {"measurement": "nucleus roundness z-score", "setting": "[3]", "value": -0.0837}, {"measurement": "KCl-induced FOS+/EGR-1+ double-positive nuclei fraction z-score", "setting": "[4]", "value": 0.623}]}, {"smiles": "CCNC(=O)C[C@@H]1N=C(c2ccc(Cl)cc2)c2cc(OC)ccc2-n2c(C)nnc21", "values": [{"measurement": "nucleus area z-score", "setting": "[1]", "value": -5.09}, {"measurement": "total neurite length per nucleus (z-score)", "setting": "[2]", "value": -2.4}, {"measurement": "nucleus roundness z-score", "setting": "[3]", "value": -5.92}, {"measurement": "KCl-induced FOS+/EGR-1+ double-positive nuclei fraction z-score", "setting": "[4]", "value": -0.945}]}, {"smiles": "CCC1=C[C@H]2CN3CCc4c([nH]c5ccccc45)[C@](C(=O)OC)(C2)[C@H]13", "note": "[Catharanthine]", "values": [{"measurement": "nucleus area z-score", "setting": "[1]", "value": -0.747}, {"measurement": "total neurite length per nucleus (z-score)", "setting": "[2]", "value": -0.223}, {"measurement": "nucleus roundness z-score", "setting": "[3]", "value": -1.31}, {"measurement": "KCl-induced FOS+/EGR-1+ double-positive nuclei fraction z-score", "setting": "[4]", "value": -0.739}]}, {"smiles": "CC[C@@H]1/C=C/C=C/C[C@H](C)[C@H](O)[C@](C)(O)C(=O)[C@H](C)[C@@H](O)[C@H](C)C(=O)[C@H](C)[C@@H](O)[C@H](C)/C=C/C(=O)O[C@H]2[C@@H](C)[C@@H](CC1)O[C@@]1(CC[C@@H](C)[C@@H](C[C@H](C)O)O1)[C@@H]2C", "note": "[Oligomycin A]", "values": [{"measurement": "nucleus area z-score", "setting": "[1]", "value": 0.105}, {"measurement": "total neurite length per nucleus (z-score)", "setting": "[2]", "value": -0.65}, {"measurement": "nucleus roundness z-score", "setting": "[3]", "value": -1.36}, {"measurement": "KCl-induced FOS+/EGR-1+ double-positive nuclei fraction z-score", "setting": "[4]", "value": -0.64}]}]}
